Laboratory results: PubChem BioAssay AID248 (DTP/NCI, 2004)
The list is a part of this screen's results and no random one: it is rich in T/C values a quarter to a half above the control, in often repeated tests (any T/C) and in doses without a T/C. Further doses and runs are listed elsewhere. T/C: endpoint of the treated group in % of that of the vehicle group. Some doses have a count of surviving animals in place of a T/C: the source holds a T/C of zero for them, seemingly a mark for toxic or unscored doses. Some doses without a T/C left all or most animals alive at the check, yet need not have been tolerated: the source hardly ever lists a survival T/C far under the control, and the zero likely stands for such cases as well. Counts of survivors are from the toxicity check (mostly the fifth day) where no day follows; animals may have died later. Schedules are NCI's codes, read here as Q, the interval in days (D) or hours (H), X, the number of doses. Some schedules carry Z or #; the key to these is not given. For survival time, this PubChem deposit counts one and a half times the control or more as active, and values a quarter to a half above the control carry no call in these data; other NCI protocols may use other cut-offs. Some T/C values are followed by the survivors on the day toxicity was checked, most often the fifth; without a count, all were alive then.

Test system: L1210 leukemia ip in BDF1 mice, survival T/C
Test: NCI In Vivo Anticancer Drug Screen. Data for tumor model L1210 Leukemia (intraperitoneal) in B6D2F1 (BDF1) mice
Conditions: higher T/C = longer survival
[1] = T/C endpoint: mean survival time, dose: 400.0 mg/kg/injection, schedule: Q01DX009 (ip), vehicle: Klucel (hydroxypropylcellulose) (HPC)
[2] = T/C endpoint: mean survival time, dose: 300.0 mg/kg/injection, schedule: Q01DX001 (ip), vehicle: saline
[3] = T/C endpoint: mean survival time, dose: 12.5 mg/kg/injection, schedule: Q04DX003 (ip), vehicle: saline
[4] = T/C endpoint: mean survival time, dose: 100.0 mg/kg/injection, schedule: Q04DX003 (ip), vehicle: Klucel (hydroxypropylcellulose) (HPC)
[5] = T/C endpoint: mean survival time, dose: 200.0 mg/kg/injection, schedule: Q04DX003 (ip), vehicle: Klucel (hydroxypropylcellulose) (HPC)
[6] = T/C endpoint: mean survival time, dose: 400.0 mg/kg/injection, schedule: Q04DX003 (ip), vehicle: Klucel (hydroxypropylcellulose) (HPC)
[7] = T/C endpoint: mean survival time, dose: 400.0 mg/kg/injection, schedule: Q04DX003 (ip), vehicle: saline with Tween-80
[8] = T/C endpoint: mean survival time, dose: 0.08 mg/kg/injection, schedule: Q01DX Z (ip), vehicle: other
[9] = T/C endpoint: mean survival time, dose: 0.15 mg/kg/injection, schedule: Q01DX Z (ip), vehicle: other
[10] = T/C endpoint: mean survival time, dose: 200.0 mg/kg/injection, schedule: Q01DX009 (ip), vehicle: saline with Tween-80
[11] = T/C endpoint: mean survival time, dose: 100.0 mg/kg/injection, schedule: Q04DX003 (ip), vehicle: saline with Tween-80
[12] = T/C endpoint: mean survival time, dose: 200.0 mg/kg/injection, schedule: Q04DX003 (ip), vehicle: saline with Tween-80

## CCC1C(CC(=O)O)=C(C)NC(C)=C1CC(=O)O
[1]
  survivor count: 1 of 6

## CC(C)NCCOC(=O)c1ccc(N)cc1
[2]
  survivor count: 1 of 6

## CC(=O)Cc1cc(C)nc(NC#N)n1
T/C endpoint: mean survival time, dose: 400.0 mg/kg/injection, schedule: Q04DX002 (ip), vehicle: Klucel (hydroxypropylcellulose) (HPC)
  survivor count: 3 of 3

## O=C(C[n+]1ccc2ccccc2c1)c1ccccc1
[3]
  survivor count: 0 of 6
T/C endpoint: mean survival time, dose: 25.0 mg/kg/injection, schedule: Q04DX003 (ip), vehicle: saline
  survivor count: 0 of 6
T/C endpoint: mean survival time, dose: 100.0 mg/kg/injection, schedule: Q04DX003 (ip), vehicle: saline
  survivor count: 0 of 6
T/C endpoint: mean survival time, dose: 200.0 mg/kg/injection, schedule: Q04DX003 (ip), vehicle: saline
  survivor count: 0 of 6
T/C endpoint: mean survival time, dose: 400.0 mg/kg/injection, schedule: Q04DX003 (ip), vehicle: saline
  survivor count: 0 of 6

## CC(C)SCC(N)CO (configuration not stated)
T/C endpoint: mean survival time, dose: 400.0 mg/kg/injection, schedule: Q01DX009 (ip), vehicle: water
  survivor count: 3 of 6

## C=C=[CH][Sn]([c]1ccccc1)([c]1ccccc1)[c]1ccccc1
[4]
  survivor count: 3 of 6
[5]
  survivor count: 0 of 6
[6]
  survivor count: 0 of 6

## O=[N+]([O-])c1cccc(/C=C/c2ccc(S(=O)(=O)F)cc2)c1
[7]
  survivor count: 3 of 6

## CCCC(=O)Nc1cc(OC)ccc1OC
[1]
  survivor count: 0 of 6

## CC(=O)c1ccccc1OC(=S)N(C)C
[7]
  survivor count: 4 of 6

## CC1CC(C)(O)CC(C(O)CC2CC(=O)NC(=O)C2)C1=O (configuration not stated)
T/C endpoint: mean survival time, dose: 0.04 mg/kg/injection, schedule: Q01DX009 (ip), vehicle: saline
  T/C: 141 % of control
T/C endpoint: mean survival time, dose: 0.05 mg/kg/injection, schedule: Q01DX Z (ip), vehicle: other
  T/C: 128 % of control
[8]
  T/C: 143 % of control
  survivor count: 4 of 6
T/C endpoint: mean survival time, dose: 0.08 mg/kg/injection, schedule: Q03HX024 (ip), vehicle: saline
  T/C: 136 % of control
T/C endpoint: mean survival time, dose: 0.15 mg/kg/injection, schedule: Q01DX005 (ip), vehicle: saline
  T/C: 128 % of control
T/C endpoint: mean survival time, dose: 0.15 mg/kg/injection, schedule: Q01DX Z (ip), vehicle: methylcellulose (MC)
  T/C: 144 % of control
[9]
  T/C: 148 % of control
  survivor count: 0 of 6
T/C endpoint: mean survival time, dose: 0.15 mg/kg/injection, schedule: Q03HX016 (ip), vehicle: saline
  T/C: 141 % of control
T/C endpoint: mean survival time, dose: 0.15 mg/kg/injection, schedule: Q04DX003 (ip), vehicle: saline
  T/C: 128 % of control
T/C endpoint: mean survival time, dose: 0.3 mg/kg/injection, schedule: Q01DX005 (ip), vehicle: saline
  T/C: 129 % of control
T/C endpoint: mean survival time, dose: 0.3 mg/kg/injection, schedule: Q01DX005 (iv), vehicle: saline
  T/C: 131 % of control
T/C endpoint: mean survival time, dose: 0.3 mg/kg/injection, schedule: Q01DX009 (ip), vehicle: saline
  survivor count: 2 of 10
T/C endpoint: mean survival time, dose: 0.3 mg/kg/injection, schedule: Q01DX Z (ip), vehicle: other
  survivor count: 0 of 6
T/C endpoint: mean survival time, dose: 0.3 mg/kg/injection, schedule: Q04DX003 (ip), vehicle: saline
  T/C: 135 % of control
T/C endpoint: mean survival time, dose: 0.3 mg/kg/injection, schedule: Q08DX002 (ip), vehicle: saline
  T/C: 137 % of control
T/C endpoint: mean survival time, dose: 0.6 mg/kg/injection, schedule: Q01DX005 (ip), vehicle: saline
  T/C: 126 % of control
T/C endpoint: mean survival time, dose: 0.6 mg/kg/injection, schedule: Q01DX009 (ip), vehicle: saline
  survivor count: 0 of 10
T/C endpoint: mean survival time, dose: 0.6 mg/kg/injection, schedule: Q01DX Z (ip), vehicle: other
  survivor count: 0 of 6
T/C endpoint: mean survival time, dose: 0.6 mg/kg/injection, schedule: Q03HX016 (ip), vehicle: saline
  survivor count: 2 of 10
T/C endpoint: mean survival time, dose: 0.6 mg/kg/injection, schedule: Q04DX003 (ip), vehicle: saline
  T/C: 136 % of control
T/C endpoint: mean survival time, dose: 1.2 mg/kg/injection, schedule: Q01DX009 (oral), vehicle: saline
  survivor count: 4 of 10
T/C endpoint: mean survival time, dose: 1.2 mg/kg/injection, schedule: Q04DX003 (ip), vehicle: saline
  T/C: 145 % of control
T/C endpoint: mean survival time, dose: 1.2 mg/kg/injection, schedule: Q08DX002 (ip), vehicle: saline
  T/C: 136 % of control
T/C endpoint: mean survival time, dose: 2.4 mg/kg/injection, schedule: Q01DX009 (oral), vehicle: saline
  survivor count: 1 of 10
T/C endpoint: mean survival time, dose: 2.4 mg/kg/injection, schedule: Q08DX002 (ip), vehicle: saline
  T/C: 140 % of control
T/C endpoint: mean survival time, dose: 4.8 mg/kg/injection, schedule: Q08DX002 (ip), vehicle: saline
  T/C: 132 % of control [9 of 10 alive]
T/C endpoint: mean survival time, dose: 4.8 mg/kg/injection, schedule: Q11DX001 (oral), vehicle: saline
  survivor count: 2 of 10
T/C endpoint: mean survival time, dose: 4.8 mg/kg/injection, schedule: Q14DX008 (ip), vehicle: saline
  survivor count: 0 of 10
T/C endpoint: mean survival time, dose: 9.6 mg/kg/injection, schedule: Q11DX001 (oral), vehicle: saline
  survivor count: 0 of 10
T/C endpoint: mean survival time, dose: 19.2 mg/kg/injection, schedule: Q11DX001 (oral), vehicle: saline
  survivor count: 0 of 10
T/C endpoint: median survival time, dose: 0.5 mg/kg/injection, schedule: Q04DX003 (ip), vehicle: saline
  T/C: 132 % of control
T/C endpoint: median survival time, dose: 1.0 mg/kg/injection, schedule: Q04DX003 (ip), vehicle: saline
  T/C: 135 % of control
T/C endpoint: median survival time, dose: 4.0 mg/kg/injection, schedule: Q04DX003 (ip), vehicle: saline
  survivor count: 4 of 8
T/C endpoint: median survival time, dose: 8.0 mg/kg/injection, schedule: Q04DX003 (ip), vehicle: saline
  survivor count: 4 of 8

## Cc1c2ccccc2c(CCl)c2ccc3ccccc3c12
T/C endpoint: mean survival time, dose: 50.0 mg/kg/injection, schedule: Q01DX009 (ip), vehicle: carboxymethylcellulose (CMC)
  survivor count: 3 of 6
T/C endpoint: mean survival time, dose: 75.0 mg/kg/injection, schedule: Q01DX009 (ip), vehicle: carboxymethylcellulose (CMC)
  survivor count: 1 of 6
T/C endpoint: mean survival time, dose: 200.0 mg/kg/injection, schedule: Q01DX009 (ip), vehicle: carboxymethylcellulose (CMC)
  survivor count: 0 of 6

## O=C(O)c1cc(C(=O)O)cc([N+](=O)[O-])c1
[10]
  survivor count: 6 of 6
[7]
  survivor count: 3 of 6

## Cc1cccc(C2NC(=O)N3C(c4cccc(C)c4)NC(=O)N23)c1 (configuration not stated)
T/C endpoint: mean survival time, dose: 400.0 mg/kg/injection, schedule: Q01DX009 (ip), vehicle: gum acacia
  survivor count: 6 of 6

## O=NO.[Co].[NH2-].[NH2-].[NH2-].[NH2-].[NH2-]
[3]
  survivor count: 0 of 3
T/C endpoint: mean survival time, dose: 50.0 mg/kg/injection, schedule: Q04DX003 (ip), vehicle: saline
  survivor count: 3 of 3
[11]
  survivor count: 0 of 3
[12]
  survivor count: 0 of 3
[7]
  survivor count: 0 of 3

## CN(C)C(=O)CCOc1cccc2ccccc12
T/C endpoint: mean survival time, dose: 150.0 mg/kg/injection, schedule: Q01DX001 (ip), vehicle: saline
  survivor count: 0 of 6
[2]
  survivor count: 0 of 6

## c1ccc(C2CC([P+](c3ccccc3)(c3ccccc3)c3ccccc3)=NN2CC[P+](c2ccccc2)(c2ccccc2)c2ccccc2)cc1 (configuration not stated)
[11]
  survivor count: 0 of 6
[12]
  survivor count: 0 of 6
[7]
  survivor count: 0 of 6

## CCC(CC)NCC(C)(C)O
T/C endpoint: mean survival time, dose: 300.0 mg/kg/injection, schedule: Q01DX001 (ip), vehicle: acid diluted with saline
  survivor count: 3 of 6

## O=C(Nc1cccc(F)c1)Nc1cc(C(F)(F)F)ccc1Cl
[10]
  survivor count: 6 of 6

## Clc1ccc(CN2CCCN(C3CCCCC3)C2C2CCC=CO2)cc1 (configuration not stated)
T/C endpoint: mean survival time, dose: 200.0 mg/kg/injection, schedule: Q01DX001 (ip), vehicle: saline
  survivor count: 2 of 6
T/C endpoint: mean survival time, dose: 400.0 mg/kg/injection, schedule: Q01DX001 (ip), vehicle: saline
  survivor count: 1 of 6

## O=C1NC(CCCl)C(=O)NC1CCCl (configuration not stated)
T/C endpoint: mean survival time, dose: 400.0 mg/kg/injection, schedule: Q01DX001 (ip), vehicle: carboxymethylcellulose (CMC)
  survivor count: 2 of 4

## O=Nc1ccc2cc(O)ccc2c1O
T/C endpoint: mean survival time, dose: 25.0 mg/kg/injection, schedule: Q01DX009 (ip), vehicle: Klucel (hydroxypropylcellulose) (HPC)
  survivor count: 6 of 6
T/C endpoint: mean survival time, dose: 50.0 mg/kg/injection, schedule: Q01DX009 (ip), vehicle: Klucel (hydroxypropylcellulose) (HPC)
  survivor count: 2 of 6
[4]
  survivor count: 2 of 6
[5]
  survivor count: 1 of 6
[6]
  survivor count: 0 of 6
